Experimental data from PMC10247384.
No constants are given. Whether binding was seen depends on the method and setting. Binding seen in cells or lysates may run through a third protein. Some binding calls cover weakened binding; strength is not graded here. For some assays here: Sequences can lack the tags named with a protein. One block for each molecule: values may come before it.

Protein sequences, listed by entry. Tags and fused reporters are not part of them.
UniProt Q9H6L5: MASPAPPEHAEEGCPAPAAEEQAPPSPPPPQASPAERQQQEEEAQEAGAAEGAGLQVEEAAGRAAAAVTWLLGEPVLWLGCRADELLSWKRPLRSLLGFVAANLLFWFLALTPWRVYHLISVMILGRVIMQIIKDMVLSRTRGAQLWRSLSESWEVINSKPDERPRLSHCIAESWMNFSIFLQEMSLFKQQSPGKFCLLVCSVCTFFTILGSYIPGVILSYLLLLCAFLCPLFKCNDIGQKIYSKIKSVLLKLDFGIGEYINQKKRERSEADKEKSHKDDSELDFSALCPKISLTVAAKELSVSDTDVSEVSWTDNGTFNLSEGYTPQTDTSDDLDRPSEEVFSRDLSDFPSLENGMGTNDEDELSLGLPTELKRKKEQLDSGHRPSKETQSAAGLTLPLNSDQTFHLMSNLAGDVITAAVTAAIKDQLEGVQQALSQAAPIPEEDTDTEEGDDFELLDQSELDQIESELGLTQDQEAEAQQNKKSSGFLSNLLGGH
UniProt Q9JKW0: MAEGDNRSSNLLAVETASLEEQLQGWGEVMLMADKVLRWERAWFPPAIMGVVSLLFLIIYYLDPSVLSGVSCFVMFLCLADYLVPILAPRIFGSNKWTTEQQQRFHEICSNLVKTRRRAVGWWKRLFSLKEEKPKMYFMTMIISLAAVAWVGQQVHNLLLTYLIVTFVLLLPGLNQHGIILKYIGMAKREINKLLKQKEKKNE

Assays:
[1] = target: FAM134B N-terminally tagged with the V1 or V2 fragment of the Venus protein (UniProt Q9H6L5); experiment: split reporter; Venus fluorescence from V1- and V2-tagged proteins in transiently expressing U2OS cells (WT or ARL6IP1 KO)
[2] = target: green fluorescent protein (GFP)-tagged FAM134B (UniProt Q9H6L5); experiment: co-IP; HEK293T cells transfected with Myc-ARL6IP1 and tagged FAM134 family members or GFP-tagged FAM134B deletion constructs; immunoblot
[3] = target: T1, tagged FAM134A (UniProt Q8NC44); experiment: as above
T1 sequence: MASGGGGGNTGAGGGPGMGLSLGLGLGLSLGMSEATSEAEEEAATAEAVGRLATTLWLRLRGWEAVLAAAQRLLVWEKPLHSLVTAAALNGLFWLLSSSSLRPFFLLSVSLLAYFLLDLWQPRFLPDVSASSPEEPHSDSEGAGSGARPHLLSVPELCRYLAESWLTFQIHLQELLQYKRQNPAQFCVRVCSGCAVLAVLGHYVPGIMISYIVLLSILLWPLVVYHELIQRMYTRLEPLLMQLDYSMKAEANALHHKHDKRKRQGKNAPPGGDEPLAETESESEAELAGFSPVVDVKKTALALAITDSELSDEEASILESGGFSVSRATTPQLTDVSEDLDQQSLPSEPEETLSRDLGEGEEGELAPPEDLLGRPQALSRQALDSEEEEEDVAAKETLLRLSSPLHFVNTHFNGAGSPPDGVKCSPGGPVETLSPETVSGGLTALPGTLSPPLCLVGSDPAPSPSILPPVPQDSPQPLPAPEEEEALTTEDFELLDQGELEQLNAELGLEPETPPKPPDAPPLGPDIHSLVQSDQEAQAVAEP

[4] = target: HA–FAM134B (UniProt Q9H6L5); experiment: co-IP; HEK293T cells transfected with HA-tagged ARL6IP1 or FAM134B constructs; WT and variant proteins pulled down, the endogenous binding partner detected by immunoblot
[5] = target: haemagglutinin (HA)-tagged ARL6IP1 (UniProt Q15041); experiment: co-IP; doxycycline induced HA-ARL6IP1 in U2OS cells; endogenous FAM134B detected
[6] = target: haemagglutinin (HA)-tagged ARL6IP1 (UniProt Q15041); experiment: co-IP; HA-tagged ARL6IP1 precipitated; Western blot for RTN4 and FAM134B; cells not given
[7] = target: endogenous ARL6IP1 (human cells) (human (endogenous in HEK293T and U2OS)) (UniProt Q15041); experiment: co-IP; endogenous proteins from MEFs and HEK293T cells; for MEFs cleared lysates with the ARL6IP1 primary antibody at 4 °C overnight, protein A agarose beads 4 h; immunoblot
[8] = target: green fluorescent protein (GFP)-tagged FAM134B (UniProt Q9H6L5); experiment: co-IP; transiently expressed HA–ARL6IP1 or HA–ARL6IP1-7KR with GFP–FAM134B; in Fig. 4h with co-expressed AMFR–Flag or AMFR-RINGmut–Flag; immunoblot
[9] = target: ARL6IP1 N-terminally tagged with the V1 or V2 fragment of the Venus protein (UniProt Q15041); experiment: split reporter; Venus fluorescence from V1- and V2-tagged proteins in transiently expressing U2OS cells (WT or ARL6IP1 KO)
[10] = target: endogenous ARL6IP1 (MEFs) (mouse (endogenous in MEFs)) (UniProt Q9JKW0); experiment: proximity ligation; Duolink in situ kit on PFA-fixed, permeabilised WT MEFs with rabbit anti-FAM134B-Plus and rabbit anti-ARL6IP1-Minus; the respective KO MEFs as specificity control
[11] = target: endogenous ARL6IP1 (MEFs) (mouse (endogenous in MEFs)) (UniProt Q9JKW0); experiment: co-IP; endogenous proteins from MEFs and HEK293T cells; for MEFs cleared lysates with the ARL6IP1 primary antibody at 4 °C overnight, protein A agarose beads 4 h; immunoblot

- binding [1]: binds
Molecule: ARL6IP1 N-terminally tagged with the V1 or V2 fragment of the Venus protein (from UniProt Q15041 1-203)

- binding [2]: binds
- binding [3]: binds
Molecule: Myc-ARL6IP1 (from UniProt Q15041 1-203)

- binding [4]: binds
Molecule: endogenous ARL6IP1 (human cells) (from UniProt Q15041-1 1-203)

Molecule: endogenous FAM134B (human cells) (from UniProt Q9H6L5 1-497)
- binding [5]: binds
- binding [6]: binds
- binding [7]: binds

Molecule: haemagglutinin (HA)-tagged ARL6IP1 (from UniProt Q15041 1-203)
- binding [8]: binds

- binding [9]: no binding
B1: V1-CCPG1 (protein, UniProt Q9ULG6 1-757)
chain: MSENSSDSDSSCGWTVISHEGSDIEMLNSVTPTDSCEPAPECSSLEQEELQALQIEQGESSQNGTVLMEETAYPALEETSSTIEAEEQKIPEDSIYIGTASDDSDIVTLEPPKLEEIGNQEVVIVEEAQSSEDFNMGSSSSSQYTFCQPETVFSSQPSDDESSSDETSNQPSPAFRRRRARKKTVSASESEDRLVAEQETEPSKELSKRQFSSGLNKCVILALVIAISMGFGHFYGTIQIQKRQQLVRKIHEDELNDMKDYLSQCQQEQESFIDYKSLKENLARCWTLTEAEKMSFETQKTNLATENQYLRVSLEKEEKALSSLQEELNKLREQIRILEDKGTSTELVKENQKLKQHLEEEKQKKHSFLSQRETLLTEAKMLKRELERERLVTTALRGELQQLSGSQLHGKSDSPNVYTEKKEIAILRERLTELERKLTFEQQRSDLWERLYVEAKDQNGKQGTDGKKKGGRGSHRAKNKSKETFLGSVKETFDAMKNSTKEFVRHHKEKIKQAKEAVKENLKKFSDSVKSTFRHFKDTTKNIFDEKGNKRFGATKEAAEKPRTVFSDYLHPQYKAPTENHHNRGPTMQNDGRKEKPVHFKEFRKNTNSKKCSPGHDCRENSHSFRKACSGVFDCAQQESMSLFNTVVNPIRMDEFRQIIQRYMLKELDTFCHWNELDQFINKFFLNGVFIHDQKLFTDFVNDVKDYLRNMKEYEVDNDGVFEKLDEYIYRHFFGHTFSPPYGPRSVYIKPCHYSSL

- binding [10]: binds
- binding [11]: binds
B2: endogenous FAM134B (MEFs) (protein, UniProt Q8VE91 1-480)
chain: MASPAPEEHATQGCPATEEQPPRPGVPGEEAGPEGAGPQVEEAAGRVAAALTWLLGEPVLWLGWRADELLSWKRPLRSLLTFLGANLLFWFLALTPWRVYHLISVMILGRVIMQIIKEMVLSRTRGAQLWRSLTESWEVINSKPDERARLSQCIAESWMNFSMFLQEMSLFKQQSPGKFCLLVCSVCTFFTILGSYIPGVILSYLLLLFAFLCPLFKCNDIGQKIYSKVKSILLKLDFGIGEYINQKKRERSEADKEKSHKDDSELDFSALCPKISLTVAAKELSVSDTDVSEVSWTDNGTFNLSEGYTPQTDTSDDLDRPSEEVFSRDLSDFPSLENGTGTNDEDELSLGLPTELKRKKQQLDSAHRPSKERQSAAGLSLPLKSDQALHLMSNLAGDVITAAMTAAIKDQLEGARQALTQVAPTAGEDTDTEEGDDFELLDQAELDQIESELGLTQDQGAEAQQSKKSSGFLSNLLGGH
